# Literature values in US8679548B2, “Active bromine containing biocidal compositions and their preparation” (Albemarle Corporation, priority 1998, dated 2014).
# For at least one compound, name, drawing or mass did not settle the structure.
row,SMILES,Corrosivity
1,"BrBr [Bromine (Br2), Bromine]",Corrodes most metals in
2,"ClBr [Bromine Chloride (BrCl), Bromine Chloride]",Corrodes most metals in
